According to PMC10406883:
No constants are given. Whether binding was seen depends on the method and setting. Binding seen in cells or lysates may run through a third protein. These calls come from enrichment with a bait or labelling near it, and not all partners need be listed.

Biological target: T1, glycosyltransferase B3GNT3, overexpressed (B3GNT3^OE) (UniProt Q9Y2A9)
T1 sequence: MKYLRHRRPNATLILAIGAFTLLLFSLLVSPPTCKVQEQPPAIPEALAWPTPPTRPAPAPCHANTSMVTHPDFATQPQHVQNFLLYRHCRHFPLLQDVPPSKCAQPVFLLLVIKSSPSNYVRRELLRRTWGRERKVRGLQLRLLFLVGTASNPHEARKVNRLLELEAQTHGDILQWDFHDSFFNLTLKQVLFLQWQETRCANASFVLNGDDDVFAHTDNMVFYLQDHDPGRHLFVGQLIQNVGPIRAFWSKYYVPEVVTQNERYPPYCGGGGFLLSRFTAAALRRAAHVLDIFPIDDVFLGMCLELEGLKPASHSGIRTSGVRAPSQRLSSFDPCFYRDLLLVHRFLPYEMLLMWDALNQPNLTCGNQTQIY
Experiment: affinity purification with mass spectrometry; IP-LC-MS/MS from B3GNT3^OE PANC-1 cells

binding: binds
Substance: 4F2hc (heavy chain subunit of system Xc-, encoded by the SLC3A2 gene), endogenous (from UniProt P08195-1 1-630)
